Laboratory results published in the supplement of paper PMC10849652.
The other results are listed elsewhere or left out.

Sequences of proteins named here, by UniProt entry; tags and fusion partners are left off. A change or cut given only in a name is not applied to a line headed by its entry.
UniProt O75817: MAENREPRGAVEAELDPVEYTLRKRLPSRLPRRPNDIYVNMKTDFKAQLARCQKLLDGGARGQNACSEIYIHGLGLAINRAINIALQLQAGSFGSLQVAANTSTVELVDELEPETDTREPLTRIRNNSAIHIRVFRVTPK
UniProt Q9NRF9: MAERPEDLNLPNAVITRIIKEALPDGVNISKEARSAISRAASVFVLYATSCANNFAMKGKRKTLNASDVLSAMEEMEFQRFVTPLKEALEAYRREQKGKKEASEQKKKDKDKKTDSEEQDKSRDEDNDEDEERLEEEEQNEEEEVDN
UniProt Q8NA72: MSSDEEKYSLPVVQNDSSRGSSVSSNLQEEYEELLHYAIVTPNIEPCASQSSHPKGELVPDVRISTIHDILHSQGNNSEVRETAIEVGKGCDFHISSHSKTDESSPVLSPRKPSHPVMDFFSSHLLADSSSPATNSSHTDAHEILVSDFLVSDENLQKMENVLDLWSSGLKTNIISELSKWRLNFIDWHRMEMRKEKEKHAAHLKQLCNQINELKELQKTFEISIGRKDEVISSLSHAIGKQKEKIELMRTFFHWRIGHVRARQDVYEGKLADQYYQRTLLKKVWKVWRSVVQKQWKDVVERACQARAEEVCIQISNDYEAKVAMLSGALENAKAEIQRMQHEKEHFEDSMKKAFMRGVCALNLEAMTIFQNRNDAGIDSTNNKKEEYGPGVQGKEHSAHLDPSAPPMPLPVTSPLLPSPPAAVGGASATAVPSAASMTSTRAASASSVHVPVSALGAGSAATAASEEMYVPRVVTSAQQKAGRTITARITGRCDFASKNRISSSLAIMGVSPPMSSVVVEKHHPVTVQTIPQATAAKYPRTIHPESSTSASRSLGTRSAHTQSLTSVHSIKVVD
UniProt Q9NVU0: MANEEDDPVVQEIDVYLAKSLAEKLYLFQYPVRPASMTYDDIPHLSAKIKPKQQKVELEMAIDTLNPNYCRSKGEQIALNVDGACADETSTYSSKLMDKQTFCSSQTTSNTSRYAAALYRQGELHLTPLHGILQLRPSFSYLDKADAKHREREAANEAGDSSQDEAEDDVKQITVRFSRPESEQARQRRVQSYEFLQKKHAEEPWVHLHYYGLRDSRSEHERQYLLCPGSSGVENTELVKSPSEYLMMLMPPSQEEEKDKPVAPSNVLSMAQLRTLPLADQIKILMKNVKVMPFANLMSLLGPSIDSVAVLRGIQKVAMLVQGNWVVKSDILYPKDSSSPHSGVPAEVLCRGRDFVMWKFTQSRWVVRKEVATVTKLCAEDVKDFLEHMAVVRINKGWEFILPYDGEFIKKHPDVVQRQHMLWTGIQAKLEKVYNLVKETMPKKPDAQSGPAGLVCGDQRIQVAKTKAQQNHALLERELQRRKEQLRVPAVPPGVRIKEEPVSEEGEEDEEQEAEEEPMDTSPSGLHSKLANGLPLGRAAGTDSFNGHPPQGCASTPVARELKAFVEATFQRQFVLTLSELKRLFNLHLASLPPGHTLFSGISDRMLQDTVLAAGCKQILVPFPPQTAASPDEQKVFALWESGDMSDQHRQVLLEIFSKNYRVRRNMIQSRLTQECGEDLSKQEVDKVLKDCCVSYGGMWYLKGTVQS
UniProt Q9UHN1: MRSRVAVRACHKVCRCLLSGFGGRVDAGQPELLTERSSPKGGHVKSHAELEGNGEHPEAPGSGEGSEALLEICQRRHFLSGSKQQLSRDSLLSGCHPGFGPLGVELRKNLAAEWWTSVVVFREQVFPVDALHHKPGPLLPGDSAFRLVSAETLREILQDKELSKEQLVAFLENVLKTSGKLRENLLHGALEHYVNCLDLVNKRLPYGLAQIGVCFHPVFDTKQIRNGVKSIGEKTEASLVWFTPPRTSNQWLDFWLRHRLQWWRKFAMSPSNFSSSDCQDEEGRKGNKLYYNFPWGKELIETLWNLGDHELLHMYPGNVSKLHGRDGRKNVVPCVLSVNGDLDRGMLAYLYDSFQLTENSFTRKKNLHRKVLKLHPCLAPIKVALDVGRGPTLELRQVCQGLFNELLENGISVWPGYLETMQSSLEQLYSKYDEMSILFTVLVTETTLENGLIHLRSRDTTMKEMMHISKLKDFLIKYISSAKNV
UniProt Q6EEV4: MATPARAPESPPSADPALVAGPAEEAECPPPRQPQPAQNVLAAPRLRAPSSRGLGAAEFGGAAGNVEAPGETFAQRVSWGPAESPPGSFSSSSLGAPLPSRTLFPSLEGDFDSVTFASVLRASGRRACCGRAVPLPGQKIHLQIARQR
UniProt Q9Y535: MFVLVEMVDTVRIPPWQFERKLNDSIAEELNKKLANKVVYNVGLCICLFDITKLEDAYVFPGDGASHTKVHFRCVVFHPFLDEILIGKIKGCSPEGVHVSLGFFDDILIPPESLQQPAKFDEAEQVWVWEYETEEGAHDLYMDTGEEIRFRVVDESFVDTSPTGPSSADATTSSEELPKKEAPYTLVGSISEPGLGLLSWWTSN
UniProt P53350, whole entry, looked up: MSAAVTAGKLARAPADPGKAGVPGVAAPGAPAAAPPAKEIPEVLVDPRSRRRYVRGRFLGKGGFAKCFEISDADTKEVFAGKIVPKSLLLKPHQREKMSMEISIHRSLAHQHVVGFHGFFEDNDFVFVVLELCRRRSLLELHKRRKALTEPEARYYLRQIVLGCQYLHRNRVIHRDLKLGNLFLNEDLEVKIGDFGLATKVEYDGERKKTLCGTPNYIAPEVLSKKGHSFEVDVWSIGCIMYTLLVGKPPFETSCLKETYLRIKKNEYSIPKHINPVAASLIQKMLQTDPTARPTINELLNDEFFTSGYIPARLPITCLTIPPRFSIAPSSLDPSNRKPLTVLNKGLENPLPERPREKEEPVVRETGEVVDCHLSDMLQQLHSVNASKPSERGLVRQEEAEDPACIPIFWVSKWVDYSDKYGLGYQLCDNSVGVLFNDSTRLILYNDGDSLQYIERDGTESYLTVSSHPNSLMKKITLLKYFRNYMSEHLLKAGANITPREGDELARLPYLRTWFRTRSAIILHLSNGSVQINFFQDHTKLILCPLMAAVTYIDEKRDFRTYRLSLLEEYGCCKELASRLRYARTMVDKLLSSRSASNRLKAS
UniProt Q08752, whole entry, looked up: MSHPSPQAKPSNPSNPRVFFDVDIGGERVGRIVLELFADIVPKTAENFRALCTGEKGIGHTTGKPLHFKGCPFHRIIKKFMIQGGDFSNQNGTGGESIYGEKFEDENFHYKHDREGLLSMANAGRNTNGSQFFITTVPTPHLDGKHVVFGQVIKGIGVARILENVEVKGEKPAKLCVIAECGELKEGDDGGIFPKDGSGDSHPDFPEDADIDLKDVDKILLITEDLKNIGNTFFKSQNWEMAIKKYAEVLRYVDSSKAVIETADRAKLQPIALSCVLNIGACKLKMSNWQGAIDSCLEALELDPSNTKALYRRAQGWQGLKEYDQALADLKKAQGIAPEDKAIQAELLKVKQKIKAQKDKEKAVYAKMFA
UniProt Q96HA1, whole entry, looked up: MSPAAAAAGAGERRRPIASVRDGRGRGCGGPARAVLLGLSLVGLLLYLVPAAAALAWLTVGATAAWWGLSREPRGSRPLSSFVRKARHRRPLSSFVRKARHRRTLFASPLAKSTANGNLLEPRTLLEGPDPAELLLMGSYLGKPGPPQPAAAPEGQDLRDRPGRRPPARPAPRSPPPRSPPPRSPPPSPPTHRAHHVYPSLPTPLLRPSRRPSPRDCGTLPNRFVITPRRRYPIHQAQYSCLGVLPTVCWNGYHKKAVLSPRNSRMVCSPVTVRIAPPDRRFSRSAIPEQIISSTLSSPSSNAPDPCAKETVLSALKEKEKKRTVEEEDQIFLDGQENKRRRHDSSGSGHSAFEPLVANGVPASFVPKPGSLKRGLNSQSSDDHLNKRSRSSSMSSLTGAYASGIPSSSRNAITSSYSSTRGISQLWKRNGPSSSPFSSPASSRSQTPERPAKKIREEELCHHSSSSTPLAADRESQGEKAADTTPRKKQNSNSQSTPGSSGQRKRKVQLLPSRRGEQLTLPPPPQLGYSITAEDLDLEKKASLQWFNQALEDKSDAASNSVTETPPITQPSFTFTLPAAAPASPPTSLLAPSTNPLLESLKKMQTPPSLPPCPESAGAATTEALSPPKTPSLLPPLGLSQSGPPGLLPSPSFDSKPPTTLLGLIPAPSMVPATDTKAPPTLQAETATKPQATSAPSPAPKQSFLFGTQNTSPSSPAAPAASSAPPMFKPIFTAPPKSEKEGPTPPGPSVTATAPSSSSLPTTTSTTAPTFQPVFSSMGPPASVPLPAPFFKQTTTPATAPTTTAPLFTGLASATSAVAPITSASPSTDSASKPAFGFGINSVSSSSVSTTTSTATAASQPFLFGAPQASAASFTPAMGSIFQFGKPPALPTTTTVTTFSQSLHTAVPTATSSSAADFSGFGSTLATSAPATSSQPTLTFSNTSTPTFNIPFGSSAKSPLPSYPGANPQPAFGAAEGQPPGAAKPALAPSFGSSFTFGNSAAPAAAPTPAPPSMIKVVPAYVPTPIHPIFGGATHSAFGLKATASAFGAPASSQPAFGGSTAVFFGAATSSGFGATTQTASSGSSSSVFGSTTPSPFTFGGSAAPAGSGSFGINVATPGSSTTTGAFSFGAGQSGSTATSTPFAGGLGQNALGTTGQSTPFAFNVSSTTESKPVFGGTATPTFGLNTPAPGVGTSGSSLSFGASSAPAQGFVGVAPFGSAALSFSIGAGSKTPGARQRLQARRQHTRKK
UniProt O15305: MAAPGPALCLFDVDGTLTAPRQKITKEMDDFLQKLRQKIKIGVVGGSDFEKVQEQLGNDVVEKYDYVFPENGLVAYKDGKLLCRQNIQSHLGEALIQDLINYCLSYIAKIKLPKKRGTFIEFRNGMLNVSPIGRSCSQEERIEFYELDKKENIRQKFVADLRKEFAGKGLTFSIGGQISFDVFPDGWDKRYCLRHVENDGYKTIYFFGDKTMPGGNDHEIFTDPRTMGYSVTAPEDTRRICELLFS
UniProt Q9HCU8: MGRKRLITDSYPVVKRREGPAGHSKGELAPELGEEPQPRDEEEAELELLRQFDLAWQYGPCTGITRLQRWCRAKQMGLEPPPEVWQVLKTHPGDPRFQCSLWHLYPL
UniProt Q8IWE5: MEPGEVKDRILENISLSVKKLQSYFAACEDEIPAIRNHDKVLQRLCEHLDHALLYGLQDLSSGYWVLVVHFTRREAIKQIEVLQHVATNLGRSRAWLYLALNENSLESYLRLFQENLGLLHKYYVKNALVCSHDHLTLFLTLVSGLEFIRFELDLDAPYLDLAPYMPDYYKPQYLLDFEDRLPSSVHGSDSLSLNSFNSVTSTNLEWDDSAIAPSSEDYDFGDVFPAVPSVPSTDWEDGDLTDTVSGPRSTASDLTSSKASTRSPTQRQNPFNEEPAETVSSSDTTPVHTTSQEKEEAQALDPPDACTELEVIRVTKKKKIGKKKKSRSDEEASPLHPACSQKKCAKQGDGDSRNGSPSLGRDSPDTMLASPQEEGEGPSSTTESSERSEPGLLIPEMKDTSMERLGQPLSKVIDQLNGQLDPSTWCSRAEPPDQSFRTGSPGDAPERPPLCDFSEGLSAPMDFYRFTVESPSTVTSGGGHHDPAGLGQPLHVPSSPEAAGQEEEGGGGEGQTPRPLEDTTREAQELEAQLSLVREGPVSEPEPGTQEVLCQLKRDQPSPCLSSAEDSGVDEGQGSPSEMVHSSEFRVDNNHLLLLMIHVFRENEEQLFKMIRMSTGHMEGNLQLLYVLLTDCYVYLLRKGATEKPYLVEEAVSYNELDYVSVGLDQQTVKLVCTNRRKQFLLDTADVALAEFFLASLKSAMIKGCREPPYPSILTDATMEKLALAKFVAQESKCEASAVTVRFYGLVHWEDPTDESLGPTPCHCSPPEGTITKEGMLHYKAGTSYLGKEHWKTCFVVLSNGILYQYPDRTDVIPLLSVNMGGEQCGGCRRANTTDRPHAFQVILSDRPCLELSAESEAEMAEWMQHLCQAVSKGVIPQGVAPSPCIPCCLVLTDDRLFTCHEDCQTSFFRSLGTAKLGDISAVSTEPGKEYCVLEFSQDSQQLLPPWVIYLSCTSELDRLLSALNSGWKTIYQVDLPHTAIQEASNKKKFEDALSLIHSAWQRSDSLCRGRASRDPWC
UniProt Q04941: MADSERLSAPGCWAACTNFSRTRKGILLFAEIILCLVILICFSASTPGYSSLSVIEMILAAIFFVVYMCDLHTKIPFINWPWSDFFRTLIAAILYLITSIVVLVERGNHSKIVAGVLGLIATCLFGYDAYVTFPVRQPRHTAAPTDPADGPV
UniProt Q9Y2G5: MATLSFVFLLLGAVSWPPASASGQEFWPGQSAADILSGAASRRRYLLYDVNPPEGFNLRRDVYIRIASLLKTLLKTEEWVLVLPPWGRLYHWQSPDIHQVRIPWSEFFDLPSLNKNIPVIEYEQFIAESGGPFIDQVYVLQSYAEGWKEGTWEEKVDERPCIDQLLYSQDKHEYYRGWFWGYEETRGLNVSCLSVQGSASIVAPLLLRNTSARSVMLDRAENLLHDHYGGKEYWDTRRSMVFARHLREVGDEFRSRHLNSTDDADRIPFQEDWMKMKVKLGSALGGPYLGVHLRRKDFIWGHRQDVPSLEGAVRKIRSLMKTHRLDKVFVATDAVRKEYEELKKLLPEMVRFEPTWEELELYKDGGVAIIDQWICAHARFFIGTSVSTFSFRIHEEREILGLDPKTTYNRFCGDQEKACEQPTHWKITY

What was measured:
Test in all cases: log2 fold change, soluble protein after heating vs DMSO (PISA); higher = thermal stabilisation; K562 lysate, 10 uM; active = over 0.2 and 3.5 SD of the protein, either way, in both replicates (recomputed)
vemurafenib = compound: CCCS(=O)(=O)Nc1ccc(F)c(C(=O)c2c[nH]c3ncc(-c4ccc(Cl)cc4)cc23)c1F [vemurafenib]
Procedure, shortened: (§1)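 Following dounce homogenisation of K562 pellets in PBS pH 7.4 with 1 mM MgCl2, crude extract at 1 mg/mL protein was incubated for 30 min with 10 μM compound. Aliquots were then heated for 3 min over 48°C-58°C and pooled, NP-40 was added to 0.5% at 4°C, and soluble protein was recovered as the supernatant at 21,000xg for 90 min. Channel-sum-equalised TMTpro 16plex LC-MS/MS quantified this protein. Each value, from duplicates, is a log-two fold change in thermal stability relative to solvent controls.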

[1] = compound: CCCS(=O)(=O)Nc1ccc(F)c(C(=O)c2c[nH]c3ncc(Cl)cc23)c1F
Procedure, shortened: as §1

barasertib = compound: CCN(CCCOc1ccc2c(Nc3cc(CC(=O)Nc4cccc(F)c4)[nH]n3)ncnc2c1)CCOP(=O)(O)O [barasertib]
Procedure, shortened: as §1

[2] = compound: CC[C@@H]1C(=O)N(C)c2cnc(Nc3ccc(C(=O)NC4CCN(C)CC4)cc3OC)nc2N1C1CCCC1
Procedure, shortened: as §1

volasertib = compound: CC[C@@H]1C(=O)N(C)c2cnc(Nc3ccc(C(=O)N[C@H]4CC[C@H](N5CCN(CC6CC6)CC5)CC4)cc3OC)nc2N1C(C)C [volasertib]
Procedure, shortened: as §1

[3] = compound: CCn1c(C(=O)N(C2CC2)C2CC2)cc2c3c(ncn3C)c(Nc3cc(C)n(C)n3)nc21
Procedure, shortened: as §1

[4] = compound: CCn1cc(-c2ccnc3[nH]c(-c4cccc(CN(C)C)c4)cc23)c(-c2ccc(NC(=O)N(C)C)cc2)n1
Procedure, shortened: as §1

[5] = compound: CN1CCC(CNc2ccc3ncc(-c4cccc(OC(F)(F)F)c4)n3n2)CC1
Procedure, shortened: as §1

saracatinib = compound: CN1CCN(CCOc2cc(OC3CCOCC3)c3c(Nc4c(Cl)ccc5c4OCO5)ncnc3c2)CC1 [saracatinib]
Procedure, shortened: as §1

sotrastaurin = compound: CN1CCN(c2nc(C3=C(c4c[nH]c5ccccc45)C(=O)NC3=O)c3ccccc3n2)CC1 [sotrastaurin]
Procedure, shortened: as §1

Measured: log2 fold change

POP7 (UniProt O75817)
inactive: vemurafenib -0.049 | [1] 0.071 | barasertib 0.128 | [2] 0.04 | volasertib 0.005 | [3] -0.014 | [4] -0.073 | [5] -0.032 | saracatinib 0.064 | sotrastaurin -0.024

POLE3 (UniProt Q9NRF9)
inactive: vemurafenib 0.008 | [1] -0.021 | barasertib 0.01 | [2] 0.05 | volasertib 0.014 | [3] -0.012 | [4] -0.011 | [5] 0.034 | saracatinib 0.017 | sotrastaurin 0.003

POGZ (UniProt Q7Z3K3)
inactive: vemurafenib 0.032 | [1] -0.041 | [2] 0.182 | volasertib -0.009 | [3] -0.082 | [4] -0.065 | [5] -0.253 | saracatinib 0.023 | sotrastaurin 0.049

POC5 (UniProt Q8NA72)
inactive: vemurafenib -0.062 | [1] -0.049 | barasertib 0.014 | [2] 0.17 | volasertib 0 | [3] -0.045 | [4] 0.021 | [5] -0.011 | saracatinib -0.087 | sotrastaurin -0.046

POLR3E (UniProt Q9NVU0)
inactive: vemurafenib 0.011 | [1] 0.02 | barasertib 0.003 | [2] 0.018 | volasertib -0.004 | [3] -0.012 | [4] 0.035 | [5] 0.012 | saracatinib 0.017 | sotrastaurin 0.048

POLR1A (UniProt O95602)
inactive: vemurafenib 0.04 | [1] 0.006 | barasertib 0.074 | [2] 0.055 | volasertib -0.01 | [3] -0.005 | [4] 0.012 | [5] -0.056 | saracatinib -0.011 | sotrastaurin 0.052

POLDIP2 (UniProt Q9Y2S7)
inactive: vemurafenib -0.051 | [1] 0.006 | barasertib 0.015 | [2] -0.031 | volasertib 0.02 | [3] 0.056 | [4] -0.008 | [5] 0.073 | saracatinib -0.022 | sotrastaurin -0.011

POLG2 (UniProt Q9UHN1)
inactive: vemurafenib 0.018 | [1] 0.026 | barasertib -0.05 | [2] 0.077 | volasertib 0.007 | [3] -0.003 | [4] 0.016 | [5] 0.009 | saracatinib -0.018 | sotrastaurin 0.015

POLR2M (UniProt Q6EEV4)
inactive: vemurafenib 0.117 | [1] -0.043 | barasertib 0.176 | [2] 0.032 | volasertib -0.074 | [4] 0.154 | [5] -0.077 | saracatinib 0.016 | sotrastaurin -0.072

POLR3D (UniProt P05423)
inactive: vemurafenib -0.019 | [1] -0.033 | barasertib -0.002 | [2] 0.025 | volasertib 0.012 | [3] 0.015 | [4] -0.135 | [5] 0.105 | saracatinib 0.031 | sotrastaurin 0.024

PLEKHH2 (UniProt E5RGK1)
inactive: vemurafenib -0.08 | [1] -0.004 | [2] -0.071 | volasertib -0.012 | [4] 0.408 | [5] 0.026 | saracatinib -0.136 | sotrastaurin -0.024

POLR3H (UniProt Q9Y535)
inactive: vemurafenib -0.023 | [1] 0.049 | barasertib 0.075 | [2] 0.05 | volasertib -0.008 | [3] -0.042 | [4] -0.277 | [5] 0.181 | saracatinib -0.032 | sotrastaurin -0.086

POLR1E (UniProt Q9GZS1)
inactive: vemurafenib -0.03 | [1] 0.006 | barasertib 0.018 | [2] -0.037 | volasertib -0.004 | [3] -0.015 | [4] -0.021 | [5] 0.002 | saracatinib 0.017 | sotrastaurin 0.029

PLK1 (UniProt P53350)
inactive: vemurafenib 0.053 | [1] -0.009 | barasertib 0.003 | volasertib -0.009 | [3] 0.014 | [4] 0.165 | [5] -0.279 | saracatinib 0.021
active: sotrastaurin -0.335

PPID (UniProt Q08752)
inactive: vemurafenib -0.014 | [1] 0.002 | barasertib 0 | [2] -0.03 | volasertib -0.025 | [3] 0.01 | [4] 0.063 | [5] -0.133 | saracatinib -0.018 | sotrastaurin -0.018

POLR2G (UniProt P62487)
inactive: vemurafenib -0.014 | [1] 0.02 | barasertib -0.003 | [2] 0.03 | volasertib 0.023 | [3] 0 | [4] 0.025 | [5] 0.05 | saracatinib 0.016 | sotrastaurin 0.011

POM121 (UniProt Q96HA1)
inactive: vemurafenib -0.018 | [1] -0.038 | barasertib 0.024 | [2] -0.008 | volasertib 0.064 | [3] -0.061 | [4] -0.199 | [5] 0.088 | saracatinib 0.09 | sotrastaurin -0.009

PMM2 (UniProt O15305)
inactive: vemurafenib 0.005 | [1] 0.007 | barasertib 0 | [2] -0.016 | volasertib -0.012 | [3] 0.033 | [4] -0.105 | [5] 0.065 | saracatinib 0.021 | sotrastaurin 0.007

POLD2 (UniProt P49005)
inactive: vemurafenib 0.044 | [1] 0.023 | barasertib -0.006 | [2] 0.035 | volasertib -0.004 | [3] 0.01 | [4] -0.127 | [5] 0.043 | saracatinib -0.003 | sotrastaurin -0.025

POLD4 (UniProt Q9HCU8)
inactive: vemurafenib 0.116 | [1] 0.008 | [2] 0.022 | volasertib -0.123 | [3] 0.002 | saracatinib 0.013 | sotrastaurin 0.04

PPFIA2 (UniProt O75334)
inactive: vemurafenib 0.062 | [1] -0.018 | barasertib 0.054 | [2] 0.01 | volasertib 0.02 | [3] -0.127 | [4] -0.255 | [5] 0.146 | saracatinib -0.016 | sotrastaurin -0.05

PLS3 (UniProt P13797)
inactive: vemurafenib 0 | [1] -0.019 | barasertib -0.007 | [2] -0.006 | volasertib 0.011 | [3] -0.008 | [4] -0.158 | [5] 0.147 | saracatinib -0.005 | sotrastaurin 0.001

PLEKHM2 (UniProt Q8IWE5)
inactive: vemurafenib 0.023 | [1] 0.013 | barasertib -0.04 | [2] 0.04 | volasertib -0.017 | [3] -0.022 | [4] 0.044 | [5] -0.049 | saracatinib 0.032 | sotrastaurin 0.046

PLP2 (UniProt Q04941)
inactive: vemurafenib -0.062 | [1] 0.047 | barasertib -0.068 | [2] 0.025 | volasertib -0.083 | [4] 0.054 | [5] -0.043 | saracatinib -0.088 | sotrastaurin 0.059

PLOD3 (UniProt O60568)
inactive: vemurafenib -0.02 | [1] -0.018 | barasertib -0.004 | [2] -0.048 | volasertib -0.005 | [3] 0.026 | [4] 0.01 | [5] 0.022 | saracatinib -0.015 | sotrastaurin 0.005

POMGNT2 (UniProt Q8NAT1)
inactive: vemurafenib 0.049 | [1] -0.128 | [2] 0.03 | volasertib 0.089 | [3] -0.051 | [4] -0.048 | [5] 0.04 | saracatinib 0.007 | sotrastaurin -0.095

POLR2I (UniProt P36954)
inactive: vemurafenib -0.036 | [1] 0.04 | barasertib 0.087 | volasertib -0.023 | [3] 0.06 | [4] 0.078 | [5] -0.04 | saracatinib -0.074 | sotrastaurin -0.299

PPFIA3 (UniProt O75145)
inactive: vemurafenib -0.032 | [1] -0.043 | barasertib 0.042 | volasertib -0.023 | [3] -0.013 | [4] -0.122 | [5] -0.086 | saracatinib -0.022

Taken from the entries so far (8 entries):
POLD2 (UniProt P49005)
inactive: vemurafenib 0.044 | [1] 0.023 | barasertib -0.006 | [2] 0.035 | volasertib -0.004 | [3] 0.01 | [4] -0.127 | [5] 0.043 | saracatinib -0.003 | sotrastaurin -0.025

POLD4 (UniProt Q9HCU8)
inactive: vemurafenib 0.116 | [1] 0.008 | [2] 0.022 | volasertib -0.123 | [3] 0.002 | saracatinib 0.013 | sotrastaurin 0.04

PPFIA2 (UniProt O75334)
inactive: vemurafenib 0.062 | [1] -0.018 | barasertib 0.054 | [2] 0.01 | volasertib 0.02 | [3] -0.127 | [4] -0.255 | [5] 0.146 | saracatinib -0.016 | sotrastaurin -0.05

PLS3 (UniProt P13797)
inactive: vemurafenib 0 | [1] -0.019 | barasertib -0.007 | [2] -0.006 | volasertib 0.011 | [3] -0.008 | [4] -0.158 | [5] 0.147 | saracatinib -0.005 | sotrastaurin 0.001

PLEKHM2 (UniProt Q8IWE5)
inactive: vemurafenib 0.023 | [1] 0.013 | barasertib -0.04 | [2] 0.04 | volasertib -0.017 | [3] -0.022 | [4] 0.044 | [5] -0.049 | saracatinib 0.032 | sotrastaurin 0.046

PLP2 (UniProt Q04941)
inactive: vemurafenib -0.062 | [1] 0.047 | barasertib -0.068 | [2] 0.025 | volasertib -0.083 | [4] 0.054 | [5] -0.043 | saracatinib -0.088 | sotrastaurin 0.059

PLOD3 (UniProt O60568)
inactive: vemurafenib -0.02 | [1] -0.018 | barasertib -0.004 | [2] -0.048 | volasertib -0.005 | [3] 0.026 | [4] 0.01 | [5] 0.022 | saracatinib -0.015 | sotrastaurin 0.005

POMGNT2 (UniProt Q8NAT1)
inactive: vemurafenib 0.049 | [1] -0.128 | [2] 0.03 | volasertib 0.089 | [3] -0.051 | [4] -0.048 | [5] 0.04 | saracatinib 0.007 | sotrastaurin -0.095

(continued)

POFUT2 (UniProt Q9Y2G5)
inactive: vemurafenib 0.048 | [1] 0.042 | barasertib 0.028 | [2] -0.044 | volasertib -0.002 | [3] 0.075 | [4] -0.006 | [5] 0.027 | saracatinib 0.017 | sotrastaurin 0.062

PLPPR3 isoform 3 (UniProt Q6T4P5)
inactive: [3] 0.209 | saracatinib 0.003

POLK (UniProt Q9UBT6)
inactive: [1] -0.044 | barasertib -0.306 | volasertib 0.042
